# Laboratory results published in PubChem BioAssay AID1671190 (National Center for Advancing Translational Sciences (NCATS), 2021).
# Amino acid sequences for entries named in this document (tags omitted). A change or cut given only in a name is not applied to a line headed by its entry.
# UniProt P18054: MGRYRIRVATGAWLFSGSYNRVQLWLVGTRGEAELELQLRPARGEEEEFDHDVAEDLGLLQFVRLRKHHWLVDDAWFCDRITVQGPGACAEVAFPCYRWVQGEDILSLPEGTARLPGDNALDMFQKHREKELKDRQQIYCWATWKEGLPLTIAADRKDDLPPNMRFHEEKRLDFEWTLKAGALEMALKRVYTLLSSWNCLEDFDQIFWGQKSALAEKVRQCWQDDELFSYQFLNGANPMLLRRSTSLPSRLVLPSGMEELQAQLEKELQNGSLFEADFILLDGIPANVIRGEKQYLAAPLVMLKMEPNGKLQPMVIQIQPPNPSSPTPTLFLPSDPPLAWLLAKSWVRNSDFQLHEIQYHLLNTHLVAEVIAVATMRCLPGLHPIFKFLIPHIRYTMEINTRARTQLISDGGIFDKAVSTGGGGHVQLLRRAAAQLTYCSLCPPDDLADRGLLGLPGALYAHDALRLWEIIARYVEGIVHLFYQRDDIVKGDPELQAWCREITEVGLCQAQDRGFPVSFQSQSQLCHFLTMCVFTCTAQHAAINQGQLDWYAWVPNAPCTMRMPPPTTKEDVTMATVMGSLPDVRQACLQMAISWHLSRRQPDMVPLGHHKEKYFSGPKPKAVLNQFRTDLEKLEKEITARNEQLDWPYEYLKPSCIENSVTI
# Out of some 580,000 compounds screened, about 6,100 (1.1%) were called active. The inconclusive results got no clear call from the source; some entries with a clear call stand among them for comparison. Calls follow the shape of the dose curve; as a rule, active = well fitted inhibition curve with a large enough effect; inconclusive = small, poorly fitted or top-dose-only effect, or another doubt; inactive = no such curve, though single readings can be large or run the other way. Potencies beside an inconclusive call are fits to weak or partial responses and may not hold up.
# Molecular target: Polyunsaturated fatty acid lipoxygenase ALOX12 (Homo sapiens) (UniProt P18054)
# Assay: Primary qHTS assay for inhibitors of human arachidonate 12S-lipoxygenase (ALOX12): Round 2
# Conditions: purified 12hLO, xylenol orange hydroperoxide absorbance; activity change, negative = inhibition: at 108 µM (top of the series) unless noted
# How it was run: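 Purified human 12hLO (150 nM final) in 25 mM Hepes, 0.01% Triton X-100, pH 7.0 was preincubated 15 min at room temperature with compound. Then 40 uM arachidonic acid was added, 30 min. Hydroperoxide was read by Fe-XO absorbance ratio 573/405 nm.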
# % is scaled to controls: 0 for no effect and ±100 for the full control effect; potency is read from the fitted curve at half-maximal effect.
SMILES,Potency,"activity change, negative = inhibition"
O=C(Cn1cccc1-c1nc(-c2ccc3c(c2)OCO3)no1)Nc1ccc(F)cc1,inactive,
CCc1ccc(C(=O)c2cn(CC(=O)NCc3ccc(C)cc3)c3nc(C)ccc3c2=O)cc1,"inconclusive: 158 µM [inhibitor, partial curve, poor fit]",
COc1ccc(CC(C)Nc2cccc(SC)c2)cc1 (stereo not drawn),"inconclusive: 35.5 µM [inhibitor, partial curve, poor fit]",
CCn1c(C)cc(/C=C2/SC(=O)N(CC(=O)N3CCCC3)C2=O)c1C,"inconclusive: 39.8 µM [inhibitor, partial curve]",
N#Cc1cccc(NC(=O)CSc2ccccc2C(=O)Nc2ccc3c(c2)OCCCO3)c1,"inconclusive: 28.2 µM [inhibitor, single point]",
CCc1nn(CC(=O)NCCCc2ccccc2)c(=O)c2cc3cc(F)ccc3n12,,inconclusive: -49.2% [inhibitor]
CN1CCN(c2ncc3nc(-c4cn(C)c5ccccc45)c(=O)n(CCC#N)c3n2)CC1,"inconclusive: 35.5 µM [inhibitor, partial curve, poor fit]",
CCOC(=O)CCNC(=O)N1CCN(S(=O)(=O)c2ccc3c(ccn3C)c2)CC1,"inconclusive: 112 µM [inhibitor, partial curve, poor fit]",
COc1cc(CN2CCC(Cc3ccccc3)CC2)c([N+](=O)[O-])cc1OC,"inconclusive: 0.398 µM [inhibitor, full curve, poor fit]",
Clc1cnccc1CN1CC(CNc2ccccc2)C2(C1)CN(c1ccccc1)C2 (stereo not drawn),inactive,
CC(C)c1ccc(NC(=S)NN2C(C)CCCC2C)cc1 (stereo not drawn),active: 28.2 µM,
Cc1ccc(C(=O)N2CCC3(CC2)CCN(CCc2ccccc2)c2ccccc2O3)cc1,"inconclusive: 50.1 µM [inhibitor, partial curve, poor fit]",
Cc1ccc(CNC(=O)c2ccc3c(c2)NC(=O)C(CS(=O)(=O)Cc2cccc(F)c2)N3)cc1 (stereo not drawn),"inconclusive: 89.1 µM [inhibitor, partial curve, poor fit]",
Cc1ccc(N2C(=O)C(CC(=O)Nc3ccc(F)cc3)N(Cc3ccc4c(c3)OCO4)C2=O)cc1 (stereo not drawn),"inconclusive: 56.2 µM [inhibitor, partial curve, poor fit]",
CCOC(=O)c1ccc(NC(=O)CN(C)S(=O)(=O)c2ccc(Br)s2)cc1,"inconclusive: 28.2 µM [inhibitor, full curve, poor fit]",
Cc1ccc(-c2c(NC(=O)CN3CCC(C(N)=O)CC3)oc3ccc(Cl)cc3c2=O)cc1,inactive,
CN(C)c1ccc(C=c2c3ccccc3n3c2c2c([n+]3C)CCCC2)cc1,"inconclusive: 79.4 µM [inhibitor, partial curve, poor fit]",
COc1ccc(Nc2nccc3c2cc(-c2ccccc2OC)n3C)cc1,"inconclusive: 100 µM [inhibitor, partial curve, poor fit]",
C[C@@H]1CN([C@@H](C)CO)C(=O)c2cc(N(C)C)ccc2O[C@@H](C)CCCCO[C@@H]1CN(C)S(=O)(=O)c1cccs1,"inconclusive: 6.31 µM [inhibitor, full curve, poor fit]",

# Pulled by compound from the list above, 2 records:
SMILES,Potency,"activity change, negative = inhibition"
CCc1nn(CC(=O)NCCCc2ccccc2)c(=O)c2cc3cc(F)ccc3n12,,inconclusive: -49.2% [inhibitor]
CCc1ccc(C(=O)c2cn(CC(=O)NCc3ccc(C)cc3)c3nc(C)ccc3c2=O)cc1,"inconclusive: 158 µM [inhibitor, partial curve, poor fit]",

# The list continues.

SMILES,Potency,"activity change, negative = inhibition"
CCc1ccc(-c2nc(CN3CCC(C(=O)NCc4ccco4)CC3)c(C)o2)cc1,"inconclusive: 50.1 µM [inhibitor, partial curve, poor fit]",
CCOc1ccccc1N1Cc2ccccc2C1,"inconclusive: 39.8 µM [inhibitor, partial curve, poor fit]",
O=C(NNC(=O)c1ccccn1)c1cccc([N+](=O)[O-])c1,inactive,
CCc1cc[n+](-c2nc3ccccc3nc2[N-]S(=O)(=O)c2ccc(Br)s2)cc1,"inconclusive: 56.2 µM [inhibitor, partial curve, poor fit]",
COc1ccccc1COCC(O)CNCC1(N2CCCCC2)CCCCC1 (stereo not drawn),"inconclusive: 141 µM [inhibitor, partial curve, poor fit]",
Cc1sc2cc(C(=O)NCC3CC3)[nH]c2c1CN1CCCCC1,inactive,
CCN(CC)c1ccc(/C=N/NS(=O)(=O)c2ccc(C)c([N+](=O)[O-])c2)cc1,"inconclusive: 89.1 µM [inhibitor, partial curve, poor fit]",
Cc1cccc(C)c1NC(=O)C[N+](C)(C)CC(O)COc1cccc2ccccc12 (stereo not drawn),"inconclusive: 50.1 µM [inhibitor, single point]",
CC(C)Oc1ccc(/C(O)=C2/C(=O)C(=O)N(CCN(C)C)C2c2cccs2)cc1 (stereo not drawn),"inconclusive: 11.2 µM [inhibitor, full curve, poor fit]",
O=c1oc2ccccc2cc1-c1nc(-c2ccc(N3CCCCC3)cc2)no1,inactive,
COCCNc1oc(-c2ccco2)nc1S(=O)(=O)c1ccc2c(c1)OCCO2,"inconclusive: 35.5 µM [inhibitor, partial curve, poor fit]",
CCOC(=O)C1C(C(=O)OC)=C(C2=CCCCC2)c2ccccc2N1S(=O)(=O)C(F)(F)F (stereo not drawn),"inconclusive: 15.8 µM [inhibitor, partial curve, poor fit]",
CC(=O)Nc1cccc(-c2cn(C)c(=O)n3cc(COc4ccnn4C)nc23)c1,"inconclusive: 31.6 µM [inhibitor, partial curve, poor fit]",
Cc1nc2ccc(C(=O)OC(C)C(=O)NC(=O)NCc3ccccc3)cc2nc1C (stereo not drawn),inactive,
Cc1nnc(NC(=O)NCC(O)c2cccc(Cl)c2)s1 (stereo not drawn),"inconclusive: 112 µM [inhibitor, single point]",
COc1cc(CN(C2CCCCC2C)S(=O)(=O)c2ccc(S(=O)(=O)NC3CC3)cc2)cc(OC)c1OC (stereo not drawn),inactive,
Cc1cc(S(=O)(=O)Nc2cc(C)c(O)c(C)c2)c(C)s1,"inconclusive: 126 µM [inhibitor, single point]",
CSc1ccccc1NC(=O)COC(=O)c1c[nH]c(=O)[nH]c1=O,"inconclusive: 112 µM [inhibitor, single point]",
Cc1nc(NC(=O)c2cccc(OCC(C)C)c2)ccc1Br,"inconclusive: 39.8 µM [inhibitor, partial curve, poor fit]",
